This is one part of the list. Repeats in this data set agree poorly, so a single value says little.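 HEK293T cells were given each compound shortly before transfection with a reporter in which red mCherry is followed by the SARS-CoV-2 frameshift element and then GFP in the −1 frame, so GFP appears only after frameshifting.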

For this assay, the system named is SARS-CoV-2 -1 PRF reporter mCherry-FSE-GFP(-1). Put plainly: percent effect, decrease of GFP/mCherry ratio (-1 PRF reporter) relative to controls; higher = stronger frameshift inhibition. Particulars: 10 µM; 24 h; HEK293T.
Take `CC(C)C(=O)OCC(=O)[C@@]12O[C@H](C3CCCCC3)O[C@@H]1C[C@H]1[C@@H]3CCC4=CC(=O)C=C[C@]4(C)[C@H]3[C@@H](O)C[C@@]12C` [Ciclesonide]: the percent effect was -0.133%. The value for `CN(CCOc1ccc(CC2SC(=O)NC2=O)cc1)c1ccccn1` (configuration not stated) was -3.53%; that for `COc1cc(C(=O)NS(=O)(=O)c2ccccc2C)ccc1Cc1cn(C)c2ccc(NC(=O)OC3CCCC3)cc12` [zafirlukast] was -0.873%. Then `CCCCC(CC)COC(=O)C(C#N)=C(c1ccccc1)c1ccccc1` (configuration not stated) [octocrilene], with -10.1%; and `CCN(CC)CCS(=O)(=O)[C@@H]1CCN2C(=O)c3coc(n3)CC(=O)C[C@H](O)/C=C(C)/C=C/CNC(=O)/C=C/[C@@H](C)[C@@H](C(C)C)OC(=O)[C@@H]12` [dalfopristin], with -2.17%; and `CCN(CC)CCNC(=O)c1cc(Br)c(N)cc1OC` [Bromopride], with -0.821%. Then `OC(CCN1CCCC1)(c1ccccc1)C1CCCCC1` (configuration not stated) [procyclidine], with -0.798%.

The values above are taken from the supplement of paper PMC8256030.
